The experiment deals with FaDu. The experiment can be described thus: mitochondrial oxygen consumption rate normalised to cell number, Z score over the library; higher = higher oxygen consumption (negative = OCR reduction). Particulars: treatment time 24 h, assay medium: 5 mM galactose, 5 mM pyruvate, 4 mM glutamine. The protocol:
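Primary screen: FaDu cells were incubated 24 h with Pharmakon 1600 / TDI oncology set compounds at 2 or 10 uM. Mitochondrial-specific OCR (basal minus 2 uM antimycin A) was measured on a Seahorse XF96 in assay medium with 5 mM galactose, 5 mM pyruvate and 4 mM glutamine, then corrected for Hoechst cell number and expressed as a Z score […]. Compounds that cut cell number by >66% were excluded. Two repeats.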

± gives the standard deviation of the averaged measurements. This is a selection; strong and weak results do not stand in their true shares. Repeats in this data set agree poorly, so a single value says little.

For the compound `COc1cc2c(cc1OC)[C@@]13CCN4CC5=CCO[C@H]6CC(=O)N2[C@H]1[C@H]6[C@H]5C[C@H]43`, the “mitochondrial oxygen consumption rate normalised” value (2 µM) is 0.223 ± 0.42.

In the case of `COC(=O)C1=CCCN(C)C1`, the “mitochondrial oxygen consumption rate normalised” value (2 µM) was -0.399 ± 0.78.

As for `CCC1(c2ccc(N)cc2)CCC(=O)NC1=O` (centres undefined), the “mitochondrial oxygen consumption rate normalised” value (2 µM) worked out at 1.74 ± 1.1.

As for `CCN(C)C(=O)Oc1cccc([C@H](C)N(C)C)c1`, the “mitochondrial oxygen consumption rate normalised” value (2 µM) was -0.548 ± 0.21.

With `C[C@@H](N)[C@@H](O)c1ccccc1`, the “mitochondrial oxygen consumption rate normalised” value (2 µM) is -0.0237 ± 0.52.

For the compound `CN(C)C(=O)Oc1cc(OC(=O)N(C)C)cc(C(O)CNC(C)(C)C)c1` (centres undefined), the “mitochondrial oxygen consumption rate normalised” value (2 µM) is -0.465 ± 0.51.

For `CC[C@@H](c1cccc(O)c1)[C@@H](C)CN(C)C`, the “mitochondrial oxygen consumption rate normalised” value (2 µM) was 0.915 ± 0.57.

For the compound `CCn1cc(C(=O)O)c(=O)c2cc3c(cc21)OCO3`, the “mitochondrial oxygen consumption rate normalised” value (2 µM) came to 0.699 ± 0.3.

On to `C[N+]1(C)[C@@H]2C[C@@H](OC(=O)[C@H](CO)c3ccccc3)C[C@H]1[C@@H]1O[C@@H]12`, for which, where the note is “2 µM”, the “mitochondrial oxygen consumption rate normalised” value stood at 0.404 ± 0.24.

For the compound `C[N+]1([O-])[C@@H]2CC[C@H]1C[C@@H](OC(=O)C(CO)c1ccccc1)C2` (some centres undefined), under “2 µM”, the “mitochondrial oxygen consumption rate normalised” value was -0.873 ± 1.1.

With `N=C1NC(=O)N2CC12` (centres undefined), the “mitochondrial oxygen consumption rate normalised” value (2 µM) turned out to be 0.389 ± 2.1.

On to `COc1ccc(O)c(C(C)(C)C)c1.COc1ccc(O)cc1C(C)(C)C`, for which the “mitochondrial oxygen consumption rate normalised” value (2 µM) was -1.12 ± 1.5.

In the case of `C[C@]12CC[C@@H]3c4ccc(OC(=O)N(CCCl)CCCl)cc4CC[C@H]3[C@@H]1CC[C@@H]2O`, the “mitochondrial oxygen consumption rate normalised” value (2 µM) amounted to 0.404 ± 0.71.

For the compound `CCN1C[C@]2(COC)[C@H](O)C[C@H](OC)[C@@]34[C@@H]5C[C@@]6(O)[C@H](OC(=O)c7ccccc7)[C@@H]5[C@@](OC(C)=O)([C@@H]([C@H](OC)[C@H]23)[C@@H]14)[C@@H](O)[C@@H]6OC`, the “mitochondrial oxygen consumption rate normalised” value (2 µM) is -1.39 ± 0.4.

Take `O=[N+]([O-])c1cc([As](=O)(O)O)ccc1O`: the “mitochondrial oxygen consumption rate normalised” value (2 µM) came to 0.648 ± 0.55.

In the case of `Nc1ccncc1`, the “mitochondrial oxygen consumption rate normalised” value (2 µM) is 0.745 ± 0.016.

With `O=C(O)CCCc1ccc(N(CCCl)CCCl)cc1` [Chlorambucil], the “mitochondrial oxygen consumption rate normalised” value (2 µM) was 0.543 ± 0.35.

As to `O=C(O)CCCc1ccc(N(CCCl)CCCl)cc1`, where the note is “2 µM”, the “mitochondrial oxygen consumption rate normalised” value is -2.98 ± 0.24.

Turning to `O=C(O[C@H]1C[C@H]2CC[C@@H](C1)[N+]21CCCC1)C(O)(c1ccccc1)c1ccccc1`, the “mitochondrial oxygen consumption rate normalised” value (2 µM) stood at 0.137 ± 0.99.

For `COc1ccc(C(=O)N2CCCC2=O)cc1`, under “2 µM”, the “mitochondrial oxygen consumption rate normalised” value is -0.958 ± 0.63.

`Oc1noc2c1CCNC2`: the “mitochondrial oxygen consumption rate normalised” value (2 µM) was -2.23 ± 0.1.

On to `CCCC(C)C1(CC)C(=O)NC(=S)NC1=O` (centres undefined), for which the “mitochondrial oxygen consumption rate normalised” value (2 µM) is -0.128 ± 0.012.

Consider `O=C1C=C2C=C[C@@H]3C[C@@]2(O1)[C@H]1CCCCN31`, for which the “mitochondrial oxygen consumption rate normalised” value (2 µM) amounted to 0.0589 ± 0.39.

Regarding `CC(C)=CC1C(C(=O)OCc2cccc(Oc3ccccc3)c2)C1(C)C` (centres undefined), under “2 µM”, the “mitochondrial oxygen consumption rate normalised” value was 1.21 ± 1.2.

As to `NC(=O)C[S@@+]([O-])C(c1ccccc1)c1ccccc1`, the “mitochondrial oxygen consumption rate normalised” value (2 µM) is 0.29 ± 0.78.

As to `O=C1C[C@@H]2OCC=C3CN4CC[C@]56c7ccccc7N1[C@H]5[C@H]2[C@H]3C[C@H]46`, for the setting “2 µM”, the “mitochondrial oxygen consumption rate normalised” value was determined as 1.25 ± 0.92.

On to `N#Cc1nn(-c2c(Cl)cc(C(F)(F)F)cc2Cl)c(N)c1[S+]([O-])C(F)(F)F` (centres undefined), for which the “mitochondrial oxygen consumption rate normalised” value (2 µM) stood at 0.926 ± 0.16.

Turning to `NCCc1cc(O)c(O)cc1O`, the “mitochondrial oxygen consumption rate normalised” value (2 µM) is -0.901 ± 1.3.

Turning to `c1ccc2nc(N3CCNCC3)ccc2c1`, the “mitochondrial oxygen consumption rate normalised” value (2 µM) is 0.645 ± 1.4.

As for `C[N+](C)(C)CCCCCCCCCC[N+](C)(C)C`, the “mitochondrial oxygen consumption rate normalised” value (2 µM) is 0.0512 ± 1.1.

Take `C[N+]1(C)[C@@H]2CC[C@H]1C[C@@H](OC(=O)C(CO)c1ccccc1)C2` (some centres undefined): the “mitochondrial oxygen consumption rate normalised” value (2 µM) is 0.962 ± 0.84.

Turning to `CN1C[C@H](C(=O)N[C@]2(C)O[C@@]3(O)[C@@H]4CCCN4C(=O)[C@H](Cc4ccccc4)N3C2=O)C[C@@H]2c3cccc4[nH]cc(c34)C[C@H]21`, the “mitochondrial oxygen consumption rate normalised” value (2 µM) was 0.00853 ± 0.32.

Regarding `CC(=O)OC1CN2CCC1CC2` (centres undefined), the “mitochondrial oxygen consumption rate normalised” value (2 µM) stood at 0.131 ± 0.18.

As for `CC(CCc1ccccc1)NC(C)C(O)c1ccc(O)cc1` (centres undefined), under “2 µM”, the “mitochondrial oxygen consumption rate normalised” value came out at 0.202 ± 0.24.

Consider `COc1cccc(C2(O)CCCCC2CN(C)C)c1` (centres undefined), for which, where the note is “2 µM”, the “mitochondrial oxygen consumption rate normalised” value was -0.702 ± 0.4.

`N.N.[Cl][Pt][Cl]` [Cisplatin]: the “mitochondrial oxygen consumption rate normalised” value is, setting by setting: (2 µM) 0.633 ± 0.091; (10 µM) -0.167 ± 0.0067.

Regarding `N.N.[Cl][Pt][Cl]`, the “mitochondrial oxygen consumption rate normalised” value (2 µM) was 0.144 ± 0.092 and the “mitochondrial oxygen consumption rate normalised” value (10 µM) is 0.355 ± 0.5.

Consider `CCCN1C[C@H](CSC)C[C@@H]2c3cccc4[nH]cc(c34)C[C@H]21`, for which the “mitochondrial oxygen consumption rate normalised” value (2 µM) amounted to 0.623 ± 1.3.

For the compound `CC(C)(O)C(Cl)(Cl)Cl`, the “mitochondrial oxygen consumption rate normalised” value (2 µM) was found to be 0.209 ± 0.7.

As for `Oc1cccc2cccnc12`, the “mitochondrial oxygen consumption rate normalised” value (2 µM) is -0.493 ± 0.14.

Regarding `Cc1ncc(CNC(=O)N(CCCl)N=O)c(N)n1`, the “mitochondrial oxygen consumption rate normalised” value (2 µM) was -0.13 ± 0.092.

For `CNc1ccc(C(=O)CC(O)CCC(C)C2OC(=O)CC(O)CC(=O)CC(O)CC(O)CC(O)CC(O)CC3(O)CC(O)C(C(=O)OC)C(CC(O[C@@H]4O[C@H](C)[C@@H](O)[C@H](N)[C@@H]4O)/C=C/C=C/C=C/C=C/C=C/C=C/C=C/C2C)O3)cc1.COC(=O)C1C(O)CC2(O)CC(O)CC(O)CC(O)CC(O)CC(=O)CC(O)CC(=O)OC(C(C)CCC(O)CC(=O)c3ccc(N)cc3)C(C)/C=C/C=C/C=C/C=C/C=C/C=C/C=C/C(O[C@@H]3O[C@H](C)[C@@H](O)[C@H](N)[C@@H]3O)CC1O2` (some centres undefined), the “mitochondrial oxygen consumption rate normalised” value (2 µM) was -0.744 ± 0.59.

As to `Cc1cc(O)ccc1Cl`, the “mitochondrial oxygen consumption rate normalised” value (2 µM) was -0.029 ± 0.18.

As to `C=C[C@H]1CN2CC[C@H]1C[C@H]2[C@H](OC(=O)OCC)c1ccnc2ccc(OC)cc12`, the “mitochondrial oxygen consumption rate normalised” value (2 µM) is -1.08 ± 0.46.

For the compound `COc1ccc(CN2CCNCC2)c(OC)c1OC`, the “mitochondrial oxygen consumption rate normalised” value (2 µM) is 0.499 ± 0.46.

In the case of `CC[C@H]1CN2CC[C@H]1C[C@@H]2[C@@H](O)c1ccnc2ccc(OC)cc12`, the “mitochondrial oxygen consumption rate normalised” value (2 µM) is -3.3 ± 0.11.

`CC(C)N(CCC(C(N)=O)(c1ccccc1)c1ccccn1)C(C)C` (centres undefined): under “2 µM”, the “mitochondrial oxygen consumption rate normalised” value was -0.0968 ± 0.55.

Turning to `N=C(N)NN`, the “mitochondrial oxygen consumption rate normalised” value (2 µM) worked out at 0.366 ± 0.37.

As for `O=[N+]([O-])O[C@@H]1CO[C@H]2[C@@H]1OC[C@@H]2O`, the “mitochondrial oxygen consumption rate normalised” value (2 µM) is 1.02 ± 0.45.

As to `N[C@@H](Cc1ccc(N(CCCl)CCCl)cc1)C(=O)O`, the “mitochondrial oxygen consumption rate normalised” value (2 µM) stood at 1.68 ± 1.9.

Take `N[C@@H](Cc1ccc(N(CCCl)CCCl)cc1)C(=O)O` [Melphalan]: the “mitochondrial oxygen consumption rate normalised” value (2 µM) worked out at 0.97 ± 0.82.

As for `Cc1ccc(-c2nc3ccc(C)cn3c2CC(=O)N(C)C)cc1`, the “mitochondrial oxygen consumption rate normalised” value (2 µM) was -0.0713 ± 0.22.

(Values after the supplement of paper PMC4962491.)
